The exact form of at least one protein or probe is not confirmed. A weaker result is weaker than the reference pair of the same experiment. At least one verdict was read from the data and is not stated in words by the source.
Biological target: RAD51 (full-length human, HsRAD51) (Homo sapiens) (UniProt Q06609)
Experiment: EMSA
Details: 1 mM ATP, 50 mM HEPES pH 7.4, 150 mM NaCl, 10 mM MgAc2, 2 mM CaCl2, 1 mM TCEP, RAD51 with peptide 10 min at room temperature, then DNA 10 min at 37 C, recombinant protein

Protein sequences, listed by entry. Tags and fused reporters are not part of them.
UniProt Q06609, whole entry: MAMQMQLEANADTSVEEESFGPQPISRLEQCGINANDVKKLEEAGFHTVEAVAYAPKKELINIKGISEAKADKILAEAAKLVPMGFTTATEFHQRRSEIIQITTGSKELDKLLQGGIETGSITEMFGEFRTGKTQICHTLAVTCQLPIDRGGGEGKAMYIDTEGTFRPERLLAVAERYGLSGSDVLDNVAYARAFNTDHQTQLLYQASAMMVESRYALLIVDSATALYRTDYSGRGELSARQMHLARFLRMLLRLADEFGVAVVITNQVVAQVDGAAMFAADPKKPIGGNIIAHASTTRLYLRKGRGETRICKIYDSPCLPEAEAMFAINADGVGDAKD

“TTTTTTTTTTTTTTTTTTTTTTTTTTTTTTTTTTTTTTTTTTTTTTTTTTTTTTTTTTTT [FAM-dT60]”: binds (5 uM RAD51, 100 nM DNA, 10 mM Mg acetate, 2 mM CaCl2, no peptide, residues 1-339, single-stranded DNA); binds more weakly (stapled BRC8-2 peptide SP2 (DVT staple), varying concentrations, depolymerises RAD51 from ssDNA, residues 1-339, single-stranded DNA); binds more weakly (stapled BRC8-2 peptide SP24 (DVP staple), varying concentrations, depolymerises RAD51 from ssDNA, residues 1-339, single-stranded DNA). “TTTTTTTTTTTTTTTTTTTTTTTTTTTTTTTTTTTTTTTTTTTTTTTTTTTTTTTTTTTT [FAM-dT60]”: binds more weakly (stapled BRC8-2 peptide SP30 (DVP staple), varying concentrations, depolymerises RAD51 from ssDNA, residues 1-339, single-stranded DNA).
